Data from PubChem BioAssay AID1347426 (Functional Genomics Laboratory (NCATS/FGL), 2020).
Screen size: about 31,000 sequences; about 1,400 (4.5%) were called active.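 The calls were made as follows: active = median seed-adjusted z-score above 1 or below -1; inactive = the rest.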 The list shows a part of the results.

test: Novel Modifiers of Survival Motor Neuron (SMN) Protein: Gene Identification via Genome-wide siRNA Screen; conditions: HEK293T SMN2-luciferase reporter, siRNA knockdown, 72 h; actives lie on both sides;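 also: luminescence tracks full-length SMN protein made from the SMN2 reporter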
How it was run: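 HEK293T cells stably carrying an SMN2 promoter/splicing cassette–luciferase reporter were reverse-transfected with 1 pmol siRNA per well (druggable-genome library, 3 siRNAs per gene) and grown 72 h at 37 °C. Luminescence, normalized to negative-control siRNA and log10-transformed, was scored as MAD.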

Sequence | median seed-adjusted z-score
CAAGCAAACGGAAGACCCATT against LTBR | inactive: 0
GCCUGAAUUCCACUGCGGATT against TNFRSF18 | inactive: 0.154
GGAUAUCACAGGACAAGGATT against ZAK | inactive: -0.113
GCUCUUUGUUCAAUGCCUATT against CHRAC1 | inactive: 0.193
GGAAUAUGCCUGCCUGAAATT against NR0B2 | inactive: -0.374
GAACCAAGUUUGAGACGGATT against KRT19 | inactive: 0.0661
CCACCACUGUCAGUGACGATT against EIF3G | inactive: -0.198
CAACCUCACUGACCGGCAATT against HOXD11 | inactive: -0.185
CCCUAAAGAUCCAACUGAATT against RASGRP1 | inactive: -0.392
GACUUGUGAUCAGUGUAAATT against BNC2 | inactive: -0.0556
GGAGCUGAGGAAUUGCGAATT against HSD17B2 | inactive: 0.521
GGUUCAGUCAACUUCUUCATT against ANGPTL6 | inactive: 0
CCUCUGUCCUGACCGAGAATT against HBZ | inactive: -0.0054
CACUUAUGCUGCAAUAUAUTT against TRIM49 | inactive: 0.0648
GGAGGUCAAUUUGAACGCATT against DDX21 | inactive: -0.251
GUUUCUUGAUUGGACAAAATT against LDHAL6B | inactive: -0.192
GAAUACACGGAAUCGAUUUTT against ARHGAP10 | inactive: -0.458
GGCAGAAUCAUGAAUGUCATT against ATP5B | inactive: 0.393
GCAAGGAGCUAGAGCCUUUTT against MOBKL2B | inactive: -0.613
GCAAUAUUGUUCAACAGCATT against USP48 | inactive: 0.397
AGAUCAGGAUGAUCGAGAATT against BGN | inactive: 0.376
CGACAUCUCACUCAUGAAATT against SF3A3 | active: -2.1
AGUGUAAGGUUUGUCCGAATT against ZSCAN22 | inactive: 0.277

Rewritten tab-delimited: entries from further up.
Sequence	median seed-adjusted z-score
GCCUGAAUUCCACUGCGGATT against TNFRSF18	inactive: 0.154
GGAUAUCACAGGACAAGGATT against ZAK	inactive: -0.113
GCUCUUUGUUCAAUGCCUATT against CHRAC1	inactive: 0.193
GGAAUAUGCCUGCCUGAAATT against NR0B2	inactive: -0.374
GAACCAAGUUUGAGACGGATT against KRT19	inactive: 0.0661
CCACCACUGUCAGUGACGATT against EIF3G	inactive: -0.198
CAACCUCACUGACCGGCAATT against HOXD11	inactive: -0.185
CCCUAAAGAUCCAACUGAATT against RASGRP1	inactive: -0.392
GACUUGUGAUCAGUGUAAATT against BNC2	inactive: -0.0556
GGAGCUGAGGAAUUGCGAATT against HSD17B2	inactive: 0.521
GGUUCAGUCAACUUCUUCATT against ANGPTL6	inactive: 0
CCUCUGUCCUGACCGAGAATT against HBZ	inactive: -0.0054
CACUUAUGCUGCAAUAUAUTT against TRIM49	inactive: 0.0648
GGAGGUCAAUUUGAACGCATT against DDX21	inactive: -0.251
GUUUCUUGAUUGGACAAAATT against LDHAL6B	inactive: -0.192
GAAUACACGGAAUCGAUUUTT against ARHGAP10	inactive: -0.458
GGCAGAAUCAUGAAUGUCATT against ATP5B	inactive: 0.393
GCAAGGAGCUAGAGCCUUUTT against MOBKL2B	inactive: -0.613
GCAAUAUUGUUCAACAGCATT against USP48	inactive: 0.397
AGAUCAGGAUGAUCGAGAATT against BGN	inactive: 0.376

More results

Sequence | median seed-adjusted z-score
AGAUCAACCUGCUUCCCGATT against PDK2 | inactive: -0.481
GCAUACAGACUGACUCCUATT against EIF3H | inactive: 0.449
GCCGAUAACUUUGAAUACATT against PGM1 | inactive: 0.136
GCAGCUUCCUCCUCGAGUATT against SNX18 | inactive: 0
GAAAAUCACCAAAACAUACTT against WHSC1 | active: 1.17
CGUGAACCCAAAGUAUAUUTT against LOXL1 | inactive: 0.0435
CUCACUUCGGACUCACUUATT against FOXO3 | inactive: -0.712
GCACGACUUUGUACUCAGATT against HES5 | inactive: -0.00853
GGAGAAUUCGUGUUGCAAATT against PLXNC1 | inactive: -0.0792
GGGCAAAGCGAAACGCAAATT against ZNF536 | inactive: -0.295
GAGUCAGGAUUCUACCAGATT against PCDHGA12 | inactive: 0.561
CCACGUCUCCAUUUCUUUATT against TUBB | inactive: -0.307
GACUCCUACAUGUCCAUUATT against DNM3 | inactive: 0
CGUAUAUGGUGGAGCAUGATT against WNK2 | inactive: 0.212
GACCUUCGAUGAACCGGAATT against GRAP2 | inactive: 0.296
UGAUAAGGAUGGUCCAGAUTT against FOXR1 | inactive: -0.153
CAAAAGAGCUUACAAUUCATT against PSTPIP2 | inactive: 0.0136
CAAUCCUGUAUCUACCGUATT against OVCH1 | inactive: 0.0211
CCAGAAAUCUUCCACAGAATT against TOP3A | inactive: 0.474
CACUUUCCGGCAUAACUUUTT against MAL | inactive: 0.0733
GGAAAUUGUUCAGCGAUUATT against SIPA1L2 | inactive: -0.573
GCUUGAGGCACAUAACAAATT against ZNF385A | inactive: -0.968
AGACAGACCGCCAAAUAAATT against KLF1 | inactive: 0

Sequence | median seed-adjusted z-score
CGGGUACUGCUACACCUUUTT against SLC22A8 | inactive: 0.175
AGAAGUACGUGACCGAGUATT against PRDM15 | inactive: 0.258
GGCCUGAACAAGAACAUCATT against CNTF | inactive: 0.3
CGGAUUUCUUUGAACUAUUTT against TCERG1 | inactive: 0.415
GAGUGAUCUUUCUAGCAAATT against KTN1 | inactive: -0.233
CCCAGAUUGCAUACUCUAATT against ACP5 | inactive: 0.353
GGUGAAGGUAGAUCAAAGATT against EIF2AK2 | inactive: 0.419
CGAACGUGCUUUUUCUCAATT against SULT4A1 | inactive: -0.0628
CGAGACGUAUUAUAUCUUUTT against COL4A3BP | inactive: 0.0391
CCGAUUCGGUCACCAAGUATT against MYO1F | inactive: 0.103
GGUUUUAGACAAUUACUUATT against CLIC1 | inactive: 0.288
AGACCUUCGUGGAAAAAUATT against CDC37 | inactive: 0
GCAUGUGAGCGUUUCCCUATT against ITGB1BP3 | inactive: 0.0514
UGGGCCUGCUAGUCUGUCATT against TSPO | inactive: -0.206
GCUAACCACUUGGAAGAUATT against PRMT7 | inactive: 0.204
GAACCGUGGAGAAAGCAAATT against ALDH1B1 | inactive: 0.105
GAUGGAAAGCGAAAAAGAATT against THRA | inactive: 0.13
GACUCACAUUUUAUGGGAATT against SPON1 | inactive: 0.248
GCUAUUUCCAGCGAAUAUATT against CNOT1 | active: 1.2
GAUCAACUGAAAUCGGCAATT against DTYMK | inactive: -0.191
GCGAAGACAUUUUGGAGAATT against GSTM2 | inactive: -0.464
CCAGGAUUCUCGCAGGAAATT against LPCAT1 | inactive: -0.995
GCCUCUUUCUGUCAGCAUUTT against SPAG4 | inactive: -0.219
